# Laboratory results from PubChem BioAssay AID720504 (National Center for Advancing Translational Sciences (NCATS), 2013).
# Sequences of proteins named here, by UniProt entry; tags and fusion partners are left off.
# UniProt P53350, whole entry, looked up: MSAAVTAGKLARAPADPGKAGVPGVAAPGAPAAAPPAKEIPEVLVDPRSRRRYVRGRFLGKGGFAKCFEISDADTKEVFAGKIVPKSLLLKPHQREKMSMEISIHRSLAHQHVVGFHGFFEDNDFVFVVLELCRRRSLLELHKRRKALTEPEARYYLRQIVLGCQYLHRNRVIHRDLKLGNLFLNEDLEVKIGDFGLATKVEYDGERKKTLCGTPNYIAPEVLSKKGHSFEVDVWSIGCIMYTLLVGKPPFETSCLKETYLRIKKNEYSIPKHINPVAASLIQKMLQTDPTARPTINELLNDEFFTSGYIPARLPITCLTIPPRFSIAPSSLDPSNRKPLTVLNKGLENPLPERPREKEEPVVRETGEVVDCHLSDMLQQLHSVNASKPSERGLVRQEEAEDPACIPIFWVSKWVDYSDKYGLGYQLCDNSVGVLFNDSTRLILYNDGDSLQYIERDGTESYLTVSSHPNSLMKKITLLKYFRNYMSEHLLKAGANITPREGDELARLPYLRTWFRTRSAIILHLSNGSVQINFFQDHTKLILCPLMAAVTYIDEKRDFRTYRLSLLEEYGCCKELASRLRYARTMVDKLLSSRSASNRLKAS
# Among all 360,000 compounds or so, about 10,000 (2.8%) were called active. Inconclusive results, whose numbers are uncertain, are shown with a selection of clear calls. Calls come from the whole dose curve; as a rule, active = well fitted inhibition curve with a large enough effect; inconclusive = small, poorly fitted or top-dose-only effect; inactive = flat fitted curve, though single readings scatter. Where the call is inconclusive, the potency comes from a doubtful curve fit.
# Target: Serine/threonine-protein kinase PLK1 (Homo sapiens) (UniProt P53350)
# Experiment: qHTS for Inhibitors of PLK1-PDB (polo-like kinase 1 - polo-box domain): Primary Screen; note: nearly all actives have a fitted effect of over 65% in size; for max response, negative = inhibition: series mostly up to about 57 µM
# Settings: Plk1 PBD binding of FITC phosphopeptide, fluorescence polarization
# % is set by controls: 0 for no effect and ±100 for the full control effect; potency is the fitted concentration of half-maximal effect.
Structure (SMILES),Potency,"max response, negative = inhibition"
NC(=O)c1c(NC(=O)CSc2nnc(-c3ccco3)n2N)sc2c1CCCC2,active: 15 µM,–
Fc1cccc(Cl)c1/C=N/n1c(-c2cccnc2)n[nH]c1=S,active: 16.8 µM,–
COCC(C)NC(=O)NC(=O)c1ccc(Cl)cc1 (centres undefined),–,inactive: -12.6%
COc1ccc(-n2cc(CNCCCN3CCCC3=O)c(-c3ccccc3Cl)n2)cc1,–,inactive: -17.4%
CCc1ccc(/C=C2/SC(=S)N(CCCC(=O)Nc3cccc(C(=O)O)c3)C2=O)cc1,"inconclusive: 29.9 µM [inhibitor, partial curve]",–
CCOc1cc(N2CCOCC2)c(OCC)cc1NC(=O)C1CCCC1,–,inactive: 0.698%
CC(O)CNc1nc2ccccc2n1CC(=O)NCCc1ccc(Cl)cc1 (centres undefined),"inconclusive: 29.9 µM [inhibitor, single point]",–
CC1CCCN(C(=O)CNS(=O)(=O)c2cccs2)C1 (centres undefined),–,inactive: -13.9%
CC1(C)CC(=O)C(C(c2ccccc2F)C2C(=O)CC(C)(C)CC2=O)C(=O)C1,"inconclusive: 18.9 µM [inhibitor, partial curve]",–
Cc1ccc(NC(=O)c2cccc(-n3cnnn3)c2)cc1Cl,–,inactive: -12%
Cc1ccc(NC(=S)c2nc3ccccc3s2)cc1,–,inactive: -14.6%
CCCC1=C/C(=C/c2ccc(-c3ccccc3OC)o2)C(=O)O1,"inconclusive: 23.8 µM [inhibitor, partial curve]",–
CCOc1ccc(C2C(C(=O)OC)=CN(C(C)c3ccccc3)C=C2C(=O)OC)cc1 (centres undefined),–,inactive: -6.18%
Cc1cc(C(=O)CSc2nc(N)cc(N)n2)c(C)n1C1CC1,"inconclusive: 37.7 µM [inhibitor, partial curve]",–
Brc1cccc(OCCn2ccnc2)c1,"inconclusive: 26.7 µM [inhibitor, partial curve]",–
COCCNC(=O)CN1CCOc2ccccc21,"inconclusive: 29.9 µM [inhibitor, single point]",–
COc1ccc2cc3cc(C(=O)NCCN4CCc5ccccc5C4)oc3nc2c1,"inconclusive: 23.8 µM [inhibitor, partial curve, poor fit]",–
C=CCOc1ccccc1C(=O)/C=C1/C(=O)Nc2ccccc21,"inconclusive: 16.8 µM [inhibitor, partial curve]",–
Cc1cc(C)nc(NC(=O)c2ccc(Cl)cc2Cl)n1,–,inactive: -14%
O=C(O)COc1cccc(/C=C2/SC(=S)N(Cc3ccccc3)C2=O)c1,active: 23.8 µM,–
Cc1ccc(C(=O)Oc2oc(-c3ccco3)nc2C=Nc2ccc(Cl)cc2)cc1,active: 4.74 µM,–
O=C(NCc1ccco1)C1CCCCC1,–,inconclusive: -9.03% [inhibitor]
COc1ccc(Cc2nnc(NC(=O)Cc3cccs3)s2)cc1OC,"inconclusive: 21.2 µM [inhibitor, partial curve]",–
S=c1[nH]c2ccccc2o1,–,inconclusive: -30.7% [inhibitor]
COCCn1c(N)c(C(=S)NC(=O)c2cccs2)c(=O)[nH]c1=O,active: 23.8 µM,–

Structure (SMILES),Potency,"max response, negative = inhibition"
COc1ccccc1NC(=O)c1ccc(NC(=O)CSc2nnnn2C)cc1,"inconclusive: 26.7 µM [inhibitor, single point]",–
O=S1OC(c2ccccc2)c2cc(Cl)ccc21 (centres undefined),"inconclusive: 26.7 µM [inhibitor, partial curve]",–
Cc1ccc(NC(=O)c2nc(S(=O)(=O)Cc3ccccc3)ncc2Cl)cc1,"inconclusive: 9.47 µM [inhibitor, partial curve]",–
O=C(CCNC(=O)N1CC(=O)Nc2ccccc21)NCc1ccccc1Cl,–,inactive: 1.09%
Cc1cccc(OCC(=O)Nc2ccc3oc(=O)ccc3c2)c1C,–,inactive: 1.39%
CC(=O)Nc1ccc(SCc2csc(C)n2)cc1,"inconclusive: 26.7 µM [inhibitor, partial curve]",–
Cc1c(NCc2ccccc2O)c(=O)n(-c2ccccc2)n1C,"inconclusive: 21.2 µM [inhibitor, partial curve]",–
CCCN1C(=O)/C(=c2\sc3nc(=O)c(Cc4ccc(C)cc4)nn3c2=O)c2ccccc21,active: 29.9 µM,–
CN1CCN(C(=S)C(=O)Nc2ccccc2)CC1,"inconclusive: 23.8 µM [inhibitor, single point]",–
CC1CCN(C(=O)CSc2nncn2-c2ccccn2)CC1,active: 26.7 µM,–
O=C(c1ccco1)N1CCN(C(=O)c2cc(-c3ccccn3)nc3ccc(Cl)cc23)CC1,"inconclusive: 23.8 µM [inhibitor, partial curve]",–
CCOC(=O)CCc1c(C)c2ccc(OCc3nn[nH]n3)cc2oc1=O,"inconclusive: 26.7 µM [inhibitor, single point]",–
Cc1ccc(S(=O)(=O)N(C)CC(=O)N2CCOCC2)cc1,"inconclusive: 26.7 µM [inhibitor, partial curve]",–
CCC(CC)C(=O)N1CCCC(c2nc(-c3cccs3)no2)C1 (centres undefined),"inconclusive: 37.7 µM [inhibitor, single point]",–
CCOc1ccc(NC(=S)NC(=O)/C=C/c2ccc(OC)c(OC)c2)c([N+](=O)[O-])c1,–,inconclusive: -30.5% [inhibitor]
N#C/C(=C\c1ccccc1)C(=O)NNS(=O)(=O)c1cccc([N+](=O)[O-])c1,"inconclusive: 13.4 µM [inhibitor, partial curve]",–
Cc1ccc(-c2cc(C(=O)Nc3ccc(S(=O)(=O)Nc4onc(C)c4C)cc3)c3ccccc3n2)cc1,active: 33.6 µM,–
C#CCOc1ccc2ccccc2c1/C=C(/C#N)c1ccc(C(=O)O)cc1,"inconclusive: 33.6 µM [inhibitor, partial curve]",–
Cc1cc(NC(=O)c2sccc2C)n(-c2nc3ccccc3[nH]2)n1,–,inactive: -28.5%
O=[N+]([O-])c1ccccc1S(=O)(=O)Nc1ccc(S(=O)(=O)Nc2nccs2)cc1,active: 26.7 µM,–
CC(C)c1nnc(NC(=O)CCC(=O)Nc2ccc3cn[nH]c3c2)s1,"inconclusive: 33.6 µM [inhibitor, single point]",–
O=C(Nc1ccc(F)cc1)N1CCc2ccccc2C1,active: 21.2 µM,–
Cc1ccccc1S(=O)(=O)N1[C@@H](c2ccc(F)cc2)C(C(=O)O)=CC[C@H]1c1ccc(Cl)cc1,"inconclusive: 18.9 µM [inhibitor, single point]",–
CSc1ccccc1-c1n[nH]c(=S)o1,"inconclusive: 26.7 µM [inhibitor, single point]",–
CCc1cccc(NC(=O)C2CCCN(S(=O)(=O)c3ccc4[nH]c(=O)ccc4c3)C2)c1 (centres undefined),"inconclusive: 2.99 µM [inhibitor, full curve]",–

# Of the compounds above, these contain two or more sulfur atoms.
Structure (SMILES),Potency,"max response, negative = inhibition"
NC(=O)c1c(NC(=O)CSc2nnc(-c3ccco3)n2N)sc2c1CCCC2,active: 15 µM,–
CCc1ccc(/C=C2/SC(=S)N(CCCC(=O)Nc3cccc(C(=O)O)c3)C2=O)cc1,"inconclusive: 29.9 µM [inhibitor, partial curve]",–
CC1CCCN(C(=O)CNS(=O)(=O)c2cccs2)C1 (centres undefined),–,inactive: -13.9%
Cc1ccc(NC(=S)c2nc3ccccc3s2)cc1,–,inactive: -14.6%
O=C(O)COc1cccc(/C=C2/SC(=S)N(Cc3ccccc3)C2=O)c1,active: 23.8 µM,–
COc1ccc(Cc2nnc(NC(=O)Cc3cccs3)s2)cc1OC,"inconclusive: 21.2 µM [inhibitor, partial curve]",–
COCCn1c(N)c(C(=S)NC(=O)c2cccs2)c(=O)[nH]c1=O,active: 23.8 µM,–
CC(=O)Nc1ccc(SCc2csc(C)n2)cc1,"inconclusive: 26.7 µM [inhibitor, partial curve]",–
O=[N+]([O-])c1ccccc1S(=O)(=O)Nc1ccc(S(=O)(=O)Nc2nccs2)cc1,active: 26.7 µM,–
CSc1ccccc1-c1n[nH]c(=S)o1,"inconclusive: 26.7 µM [inhibitor, single point]",–

# One compound at a time (already shown):
# CC(C)c1nnc(NC(=O)CCC(=O)Nc2ccc3cn[nH]c3c2)s1 as listed: Potency: inconclusive: 33.6 µM [inhibitor, single point]
# Cc1c(NCc2ccccc2O)c(=O)n(-c2ccccc2)n1C as listed: Potency: inconclusive: 21.2 µM [inhibitor, partial curve]

# The results go on:

Structure (SMILES),Potency,"max response, negative = inhibition"
CCCC(NC(=O)COc1cc2c(c3oc(=O)cc(C)c13)CCC(C)(C)O2)C(=O)O (centres undefined),–,inactive: -10.3%
O=C(O)c1ccc(N/N=C/c2ccc(-c3ccc(Cl)cc3Cl)o2)cc1,active: 23.8 µM,–
Cc1ccc(S(=O)(=O)c2nc(C(C)(C)C)oc2N2CCOCC2)cc1,"inconclusive: 16.8 µM [inhibitor, partial curve]",–
CC(C)c1nnc(NC(=O)C2c3ccccc3Oc3ccccc32)s1,"inconclusive: 21.2 µM [inhibitor, partial curve]",–
O=[N+]([O-])c1ccc(N2CCCCC2)c(-c2nn[nH]n2)c1,–,inactive: -1.12%
C=C(C)[C@@H]1CC=C(CO)CC1,"inconclusive: 23.8 µM [inhibitor, partial curve]",–
CCOC(=O)c1c(-c2ccc(-c3ccccc3)cc2)csc1NC(=O)CCC(=O)O,"inconclusive: 26.7 µM [inhibitor, single point]",–
Cc1oc(-c2ccc(Cl)cc2)cc1-c1nn2c(-c3ccoc3C)nnc2s1,"inconclusive: 23.8 µM [inhibitor, partial curve]",–
O=C(/C=C/c1ccccc1Cl)N(Cc1ccc(Cl)cc1)C1CCS(=O)(=O)C1 (centres undefined),–,inactive: 1.2%
O=C(Oc1c(CN2CCOCC2)cc(Cl)c2cccnc12)c1cccs1,–,inactive: -4.77%
CCOC(=O)c1ccc(N2C(=O)C3CCCN3C2=S)cc1 (centres undefined),active: 11.9 µM,–
CNC(=O)C1CC(=O)N(c2ccc(OCC(=O)Nc3ccc(F)cc3)cc2)C1 (centres undefined),active: 26.7 µM,–
Cc1ccc(CN(C)C(=O)c2ccc3c(c2)NC(=O)CS3)o1,"inconclusive: 6.7 µM [inhibitor, full curve]",–
CC1(C)CCC(=O)c2ccccc21,–,inactive: -7.16%
O=C(CCCc1nc2ccccc2s1)N1CCN(c2ccccc2)CC1,–,inconclusive: -31.4% [inhibitor]
O=S(=O)(O)c1cc2onnc2c2ccccc12,"inconclusive: 10.6 µM [inhibitor, partial curve]",–
COc1cc(NC(=O)c2ccc(Cl)cc2)c(OC)cc1NC(=O)CN1CCCCC1,active: 29.9 µM,–
O=c1[nH]cnc2c1ncn2C1OC(CO)CC1F (centres undefined),–,inactive: -6.26%
CSc1cccc(NC(=O)/C=C/c2ccco2)c1,"inconclusive: 16.8 µM [inhibitor, partial curve]",–
CCOC(=O)c1c(-c2cccc([N+](=O)[O-])c2)csc1N,active: 29.9 µM,–
Nc1ncnc2c1ncn2[C@@H]1O[C@H](CNCC#Cc2ccccc2)[C@@H](O)[C@H]1O,"inconclusive: 23.8 µM [inhibitor, single point]",–
COc1ccc(C(=O)c2sc(Nc3ccc(NC(C)=O)cc3)nc2C)cc1,–,inactive: 0%
CCOc1ccc(OCC(=O)c2c(O)c3ccccc3oc2=O)cc1,"inconclusive: 29.9 µM [inhibitor, single point]",–
CC(C)(O)c1ccccc1CC[C@@H](SCC1(CC(=O)O)CC1)c1cccc(/C=C/c2ccc3ccc(Cl)cc3n2)c1,–,inconclusive: -37.1% [inhibitor]
